Experimental data published in article PMC8891600.
No constants are given. Whether binding was seen depends on the method and setting. In cells and extracts the contact can be indirect. Some entries that bind do so weakly or less than the wild type. For some assays here: Tags and fused reporters may be left off the sequences shown.

By UniProt entry, the sequences of proteins in these tests, tags left out.
UniProt Q8BG36: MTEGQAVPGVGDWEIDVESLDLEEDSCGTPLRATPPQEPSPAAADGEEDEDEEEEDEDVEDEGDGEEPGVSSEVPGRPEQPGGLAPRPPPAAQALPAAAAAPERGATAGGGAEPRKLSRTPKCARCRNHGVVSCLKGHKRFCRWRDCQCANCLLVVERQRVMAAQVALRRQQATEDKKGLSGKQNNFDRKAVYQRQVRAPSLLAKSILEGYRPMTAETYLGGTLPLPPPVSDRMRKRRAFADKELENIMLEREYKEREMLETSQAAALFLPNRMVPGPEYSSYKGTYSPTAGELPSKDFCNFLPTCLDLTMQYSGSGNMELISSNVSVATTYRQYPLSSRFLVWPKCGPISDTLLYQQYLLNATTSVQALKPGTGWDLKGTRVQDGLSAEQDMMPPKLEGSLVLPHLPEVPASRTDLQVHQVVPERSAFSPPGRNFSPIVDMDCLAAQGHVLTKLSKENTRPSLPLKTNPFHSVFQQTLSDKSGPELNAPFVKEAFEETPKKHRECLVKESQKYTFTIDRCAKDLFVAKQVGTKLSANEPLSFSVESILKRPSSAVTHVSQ

B1: FXR-HA (protein, UniProt Q60641 1-488)
chain: MVMQFQGLENPIQISLHHSHRLSGFVPEGMSVKPAKGMLTEHAAGPLGQNLDLESYSPYNNVPFPQVQPQISSSSYYSNLGFYPQQPEDWYSPGIYELRRMPAETGYQGETEVSEMPVTKKPRMAAASAGRIKGDELCVVCGDRASGYHYNALTCEGCKGFFRRSITKNAVYKCKNGGNCVMDMYMRRKCQECRLRKCKEMGMLAECMYTGLLTEIQCKSKRLRKNVKQHADQTANEDDSEGRDLRQVTSTTKFCREKTELTADQQTLLDYIMDSYNKQRMPQEITNKILKEEFSAEENFLILTEMATSHVQILVEFTKKLPGFQTLDHEDQIALLKGSAVEAMFLRSAEIFNKKLPAGHADLLEERIRKSGISDEYITPMFSFYKSVGELKMTQEEYALLTAIVILSPDRQYIKDREAVEKLQEPLLDVLQKLCKMYQPENPQHFACLLGRLTELRTFNHHHAEMLMSWRVNDHKFTPLLCEIWDVQ

How the values were obtained:
[1] = molecular target: T1, FXR (endogenous) (mouse (endogenous in 3T3-L1)) (UniProt Q60641); assay: co-IP; endogenous proteins; untransfected 3T3-L1 adipocyte lysate, Dynabeads conjugated with anti-FXR; Western blot for DMRT2 and FXR
T1 sequence: B1 chain

Flag-DMRT2 = Flag-DMRT2 (UniProt Q8BG36); assay: co-IP; Flag-DMRT2 and FXR-HA co-transfected into 3T3-L1 adipocytes, 48 h; lysate supernatant incubated with Dynabeads conjugated with anti-Flag at 4°C overnight; Western blot for Flag and HA

Molecule	binding [1]	binding (Flag-DMRT2)
DMRT2 (endogenous) (from UniProt Q8BG36 1-561)	binds	
B1		binds
